Results are given in words; binding and its absence hold for the method and conditions named. Binding seen in cells or lysates may run through a third protein. Binding calls can cover weak binding; strength is not graded here. Tags and fused reporters may be left off the sequences shown.
Biological target: V5-tagged C16orf62 (pQCXIP-C16orf62-V5)
Assay: co-IP; lysate supernatants containing APN-HA and C16orf62-V5 mixed for 4 h at 4°C, then mouse anti-V5 mAb overnight, then protein A/G beads for 4 h; washed five times; Western blot (anti-APN mAb)

binding: binds
B1: HA-tagged APN (pQCXIP-APN-HA) (receptor, UniProt P15145 1-963)
chain: MAKGFYISKALGILGILLGVAAVATIIALSVVYAQEKNKNAEHVPQAPTSPTITTTAAITLDQSKPWNRYRLPTTLLPDSYNVTLRPYLTPNADGLYIFKGKSIVRLLCQEPTDVIIIHSKKLNYTTQGHMVVLRGVGDSQVPEIDRTELVELTEYLVVHLKGSLQPGHMYEMESEFQGELADDLAGFYRSEYMEGNVKKVLATTQMQSTDARKSFPCFDEPAMKATFNITLIHPNNLTALSNMPPKGSSTPLAEDPNWSVTEFETTPVMSTYLLAYIVSEFQSVNETAQNGVLIRIWARPNAIAEGHGMYALNVTGPILNFFANHYNTSYPLPKSDQIALPDFNAGAMENWGLVTYRENALLFDPQSSSISNKERVVTVIAHELAHQWFGNLVTLAWWNDLWLNEGFASYVEYLGADHAEPTWNLKDLIVPGDVYRVMAVDALASSHPLTTPAEEVNTPAQISEMFDSISYSKGASVIRMLSNFLTEDLFKEGLASYLHAFAYQNTTYLDLWEHLQKAVDAQTSIRLPDTVRAIMDRWTLQMGFPVITVDTKTGNISQKHFLLDSESNVTRSSAFDYLWIVPISSIKNGVMQDHYWLRDVSQAQNDLFKTASDDWVLLNVNVTGYFQVNYDEDNWRMIQHQLQTNLSVIPVINRAQVIYDSFNLATAHMVPVTLALDNTLFLNGEKEYMPWQAALSSLSYFSLMFDRSEVYGPMKKYLRKQVEPLFQHFETLTKNWTERPENLMDQYSEINAISTACSNGLPQCENLAKTLFDQWMSDPENNPIHPNLRSTIYCNAIAQGGQDQWDFAWGQLQQAQLVNEADKLRSALACSNEVWLLNRYLGYTLNPDLIRKQDATSTINSIASNVIGQPLAWDFVQSNWKKLFQDYGGGSFSFSNLIQGVTRRFSSEFELQQLEQFKKNNMDVGFGSGTRALEQALEKTKANIKWVKENKEVVLNWFIEHS
